Results from the supplement of paper PMC10849652.
The other results are listed elsewhere or left out.

The chains behind the UniProt entries cited, without tags or fusion partners. Where a name states a change or a piece, a line headed by the entry shows the natural chain unless it says otherwise.
UniProt O00159, whole entry, looked up: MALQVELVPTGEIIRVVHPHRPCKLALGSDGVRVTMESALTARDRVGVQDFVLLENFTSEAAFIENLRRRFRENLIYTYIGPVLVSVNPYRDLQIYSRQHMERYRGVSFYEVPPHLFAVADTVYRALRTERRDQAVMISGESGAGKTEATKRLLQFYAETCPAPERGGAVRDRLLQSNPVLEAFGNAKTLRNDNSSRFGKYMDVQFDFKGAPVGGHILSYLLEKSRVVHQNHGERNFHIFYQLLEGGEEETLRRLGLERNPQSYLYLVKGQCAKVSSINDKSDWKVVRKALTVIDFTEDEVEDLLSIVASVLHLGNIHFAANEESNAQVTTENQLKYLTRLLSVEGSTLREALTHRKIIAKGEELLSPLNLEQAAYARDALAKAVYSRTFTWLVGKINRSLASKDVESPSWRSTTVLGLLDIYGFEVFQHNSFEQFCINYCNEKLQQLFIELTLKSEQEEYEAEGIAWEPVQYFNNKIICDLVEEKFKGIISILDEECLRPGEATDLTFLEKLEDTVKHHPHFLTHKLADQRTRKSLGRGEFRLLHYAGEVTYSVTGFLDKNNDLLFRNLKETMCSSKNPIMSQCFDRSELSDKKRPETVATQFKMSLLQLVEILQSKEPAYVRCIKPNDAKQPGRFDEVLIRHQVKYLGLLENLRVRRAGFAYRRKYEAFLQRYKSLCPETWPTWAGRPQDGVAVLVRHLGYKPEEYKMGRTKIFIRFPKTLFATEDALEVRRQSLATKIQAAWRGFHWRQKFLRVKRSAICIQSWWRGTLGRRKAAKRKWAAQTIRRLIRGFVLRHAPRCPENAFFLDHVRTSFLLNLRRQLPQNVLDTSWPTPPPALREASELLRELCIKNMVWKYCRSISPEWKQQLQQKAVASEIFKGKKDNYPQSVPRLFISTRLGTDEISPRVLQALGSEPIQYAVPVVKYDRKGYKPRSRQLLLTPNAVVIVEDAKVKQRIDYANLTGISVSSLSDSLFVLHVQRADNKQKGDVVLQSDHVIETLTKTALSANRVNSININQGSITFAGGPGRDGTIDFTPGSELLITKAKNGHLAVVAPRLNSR
UniProt P11586, whole entry, looked up: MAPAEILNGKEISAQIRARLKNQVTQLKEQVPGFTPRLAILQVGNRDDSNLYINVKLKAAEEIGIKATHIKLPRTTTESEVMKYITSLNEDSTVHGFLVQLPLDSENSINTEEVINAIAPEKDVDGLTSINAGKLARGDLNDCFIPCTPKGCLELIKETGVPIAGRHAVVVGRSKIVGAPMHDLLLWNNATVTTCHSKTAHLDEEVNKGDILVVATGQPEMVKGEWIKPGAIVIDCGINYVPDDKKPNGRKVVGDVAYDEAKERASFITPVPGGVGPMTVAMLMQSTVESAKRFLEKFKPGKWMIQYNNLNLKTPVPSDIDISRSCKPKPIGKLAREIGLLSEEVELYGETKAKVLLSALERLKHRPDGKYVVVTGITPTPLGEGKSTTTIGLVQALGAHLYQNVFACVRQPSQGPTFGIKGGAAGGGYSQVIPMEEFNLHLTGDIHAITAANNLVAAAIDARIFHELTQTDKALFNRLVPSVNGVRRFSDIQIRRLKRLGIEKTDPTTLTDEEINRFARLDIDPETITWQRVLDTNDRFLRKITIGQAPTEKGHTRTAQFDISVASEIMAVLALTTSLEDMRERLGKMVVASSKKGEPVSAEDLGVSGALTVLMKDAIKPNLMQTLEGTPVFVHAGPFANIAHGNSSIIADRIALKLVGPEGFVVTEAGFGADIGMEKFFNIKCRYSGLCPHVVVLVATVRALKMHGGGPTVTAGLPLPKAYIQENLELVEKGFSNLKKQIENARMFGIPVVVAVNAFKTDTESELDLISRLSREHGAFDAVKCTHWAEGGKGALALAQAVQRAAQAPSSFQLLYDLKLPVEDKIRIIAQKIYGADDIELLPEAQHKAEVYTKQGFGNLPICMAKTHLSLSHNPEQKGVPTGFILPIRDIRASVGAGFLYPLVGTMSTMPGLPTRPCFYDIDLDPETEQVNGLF
UniProt Q9UDX5: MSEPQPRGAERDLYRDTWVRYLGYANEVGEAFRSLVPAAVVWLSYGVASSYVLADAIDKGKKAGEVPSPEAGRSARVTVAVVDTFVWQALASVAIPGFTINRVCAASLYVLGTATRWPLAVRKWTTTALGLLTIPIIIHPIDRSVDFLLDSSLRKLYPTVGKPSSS
UniProt Q9UBK8: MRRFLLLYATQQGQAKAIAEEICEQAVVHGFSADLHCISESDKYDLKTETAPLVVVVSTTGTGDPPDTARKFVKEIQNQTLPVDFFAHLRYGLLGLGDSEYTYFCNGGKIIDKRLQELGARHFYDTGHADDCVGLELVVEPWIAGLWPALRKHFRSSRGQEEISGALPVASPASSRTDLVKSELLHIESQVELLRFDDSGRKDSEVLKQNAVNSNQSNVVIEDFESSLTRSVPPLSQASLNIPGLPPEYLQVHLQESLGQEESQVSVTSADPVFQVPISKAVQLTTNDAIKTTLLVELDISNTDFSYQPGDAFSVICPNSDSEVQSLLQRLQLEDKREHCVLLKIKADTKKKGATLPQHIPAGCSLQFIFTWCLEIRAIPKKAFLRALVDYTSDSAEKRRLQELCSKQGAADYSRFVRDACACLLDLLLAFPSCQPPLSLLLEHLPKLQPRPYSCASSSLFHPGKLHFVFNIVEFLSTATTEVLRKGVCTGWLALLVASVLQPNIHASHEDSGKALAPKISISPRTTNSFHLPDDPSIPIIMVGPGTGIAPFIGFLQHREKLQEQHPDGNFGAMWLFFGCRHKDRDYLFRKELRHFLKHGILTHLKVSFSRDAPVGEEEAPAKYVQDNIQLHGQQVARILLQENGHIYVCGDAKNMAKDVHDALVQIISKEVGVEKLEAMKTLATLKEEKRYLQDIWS
UniProt G3V1V0: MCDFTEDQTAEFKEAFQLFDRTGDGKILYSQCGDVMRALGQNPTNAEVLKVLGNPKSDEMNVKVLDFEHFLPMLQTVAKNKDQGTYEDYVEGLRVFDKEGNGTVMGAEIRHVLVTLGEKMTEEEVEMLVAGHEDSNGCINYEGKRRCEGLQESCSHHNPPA
UniProt Q969V6: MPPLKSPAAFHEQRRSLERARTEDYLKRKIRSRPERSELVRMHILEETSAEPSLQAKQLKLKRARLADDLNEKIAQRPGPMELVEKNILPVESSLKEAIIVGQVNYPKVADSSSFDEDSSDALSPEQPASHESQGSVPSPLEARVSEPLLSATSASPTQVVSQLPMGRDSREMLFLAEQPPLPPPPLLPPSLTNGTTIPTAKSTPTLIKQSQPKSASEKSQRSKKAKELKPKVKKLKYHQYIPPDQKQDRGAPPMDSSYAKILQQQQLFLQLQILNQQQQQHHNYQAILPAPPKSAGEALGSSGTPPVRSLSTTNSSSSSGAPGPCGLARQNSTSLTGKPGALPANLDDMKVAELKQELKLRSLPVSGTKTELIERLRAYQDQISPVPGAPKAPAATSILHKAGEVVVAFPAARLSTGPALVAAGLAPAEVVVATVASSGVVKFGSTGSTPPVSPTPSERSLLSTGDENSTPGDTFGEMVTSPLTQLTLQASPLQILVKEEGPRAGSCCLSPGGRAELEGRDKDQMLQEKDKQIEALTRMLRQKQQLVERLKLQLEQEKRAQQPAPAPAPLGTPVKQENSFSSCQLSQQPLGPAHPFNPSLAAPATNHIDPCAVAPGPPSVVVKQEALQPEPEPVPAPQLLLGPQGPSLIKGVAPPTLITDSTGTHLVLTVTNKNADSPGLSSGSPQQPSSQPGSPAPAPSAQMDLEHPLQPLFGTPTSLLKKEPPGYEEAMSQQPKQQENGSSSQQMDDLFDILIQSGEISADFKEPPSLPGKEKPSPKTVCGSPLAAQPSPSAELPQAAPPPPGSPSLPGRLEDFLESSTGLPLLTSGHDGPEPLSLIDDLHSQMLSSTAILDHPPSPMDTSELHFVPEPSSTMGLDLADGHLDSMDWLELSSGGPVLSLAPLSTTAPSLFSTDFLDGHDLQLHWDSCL
UniProt Q7Z6M4: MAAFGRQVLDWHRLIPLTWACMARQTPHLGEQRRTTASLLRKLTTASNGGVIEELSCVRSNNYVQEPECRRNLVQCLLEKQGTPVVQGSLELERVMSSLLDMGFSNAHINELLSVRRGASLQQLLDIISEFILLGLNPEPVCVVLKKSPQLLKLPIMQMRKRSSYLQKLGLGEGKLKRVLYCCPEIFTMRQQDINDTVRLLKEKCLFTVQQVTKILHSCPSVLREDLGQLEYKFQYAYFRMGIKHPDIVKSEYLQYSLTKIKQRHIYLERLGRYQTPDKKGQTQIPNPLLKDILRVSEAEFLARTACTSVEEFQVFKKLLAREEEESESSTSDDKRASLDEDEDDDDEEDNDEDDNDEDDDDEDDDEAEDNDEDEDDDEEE
UniProt Q93083: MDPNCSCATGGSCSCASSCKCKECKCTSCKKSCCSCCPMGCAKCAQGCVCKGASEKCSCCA
UniProt Q6P1R3: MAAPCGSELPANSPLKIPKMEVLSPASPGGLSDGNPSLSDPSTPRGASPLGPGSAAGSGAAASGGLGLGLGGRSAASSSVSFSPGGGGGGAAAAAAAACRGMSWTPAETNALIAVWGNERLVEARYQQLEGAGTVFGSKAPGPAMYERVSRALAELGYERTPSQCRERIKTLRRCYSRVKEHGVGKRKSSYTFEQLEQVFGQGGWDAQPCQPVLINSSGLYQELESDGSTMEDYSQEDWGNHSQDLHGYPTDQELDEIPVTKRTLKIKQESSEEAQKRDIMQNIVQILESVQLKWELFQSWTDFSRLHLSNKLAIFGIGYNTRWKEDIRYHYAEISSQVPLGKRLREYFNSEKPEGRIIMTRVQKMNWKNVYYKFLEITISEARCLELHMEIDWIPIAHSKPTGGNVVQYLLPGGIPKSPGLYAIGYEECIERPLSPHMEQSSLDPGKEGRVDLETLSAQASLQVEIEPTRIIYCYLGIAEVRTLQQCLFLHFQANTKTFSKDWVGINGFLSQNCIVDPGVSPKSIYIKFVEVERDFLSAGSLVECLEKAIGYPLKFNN
UniProt Q9H903: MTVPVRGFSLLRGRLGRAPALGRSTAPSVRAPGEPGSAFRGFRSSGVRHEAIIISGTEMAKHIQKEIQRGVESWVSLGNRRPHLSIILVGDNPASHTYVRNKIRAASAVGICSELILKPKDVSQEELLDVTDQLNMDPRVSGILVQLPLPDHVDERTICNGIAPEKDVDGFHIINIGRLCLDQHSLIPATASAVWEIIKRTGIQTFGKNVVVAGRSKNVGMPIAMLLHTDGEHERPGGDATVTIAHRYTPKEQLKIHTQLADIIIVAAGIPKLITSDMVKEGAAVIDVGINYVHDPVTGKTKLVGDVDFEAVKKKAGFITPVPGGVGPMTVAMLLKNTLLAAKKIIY
UniProt Q68DK7: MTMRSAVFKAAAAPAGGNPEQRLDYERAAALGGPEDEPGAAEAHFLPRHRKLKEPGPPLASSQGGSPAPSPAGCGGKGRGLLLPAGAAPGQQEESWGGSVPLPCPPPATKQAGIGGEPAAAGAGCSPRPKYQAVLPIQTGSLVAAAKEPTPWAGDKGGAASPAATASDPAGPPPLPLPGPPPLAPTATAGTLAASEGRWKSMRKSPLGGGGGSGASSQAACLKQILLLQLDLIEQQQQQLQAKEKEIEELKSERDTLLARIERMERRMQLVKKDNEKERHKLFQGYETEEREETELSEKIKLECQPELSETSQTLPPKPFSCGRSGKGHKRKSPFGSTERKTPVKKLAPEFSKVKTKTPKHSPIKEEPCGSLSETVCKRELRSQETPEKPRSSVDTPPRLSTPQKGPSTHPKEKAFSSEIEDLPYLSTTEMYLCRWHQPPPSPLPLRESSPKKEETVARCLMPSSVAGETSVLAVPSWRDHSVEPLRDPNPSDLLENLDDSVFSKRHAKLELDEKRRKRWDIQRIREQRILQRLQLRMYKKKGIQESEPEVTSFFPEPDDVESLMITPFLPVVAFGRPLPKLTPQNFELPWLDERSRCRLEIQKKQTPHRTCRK

Key:
Assay in all cases: log2 fold change, soluble protein after heating vs DMSO (PISA); higher = thermal stabilisation; K562 cells, 10 uM, 30 min; active = over 0.2 and 3.5 SD of the protein, either way, in both replicates (recomputed)
[1] = compound: C1=CC=C(C=C1)[C@H](COC2=CC3=C(C=C2)NC(=O)N3)NC(=O)C4=CC=CN(C4=O)CC5=CC(=C(C=C5)F)F
Outline: (§1)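 Soluble protein was quantified by TMTpro 16plex LC-MS/MS after channel sums were equalised. It was obtained as the supernatant after 21,000xg for 90 min from pooled aliquots of K562 cells (2×10^6 cells/mL, 10 μM compound, 30 min) heated for 3 min across 48°C-58°C and extracted in PBS with 0.5% NP-40 at 4°C. Thermal stability values are relative to control samples and come from duplicates. They are given as log2 fold changes.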

[2] = compound: CC1=C(SC2=C1C(=N[C@H](C3=NN=C(N32)C)CC(=O)N)C4=CC=C(C=C4)Cl)C
Outline: as §1

[3] = compound: CC1=C2C(=CC=C1)N=C(N(C2=O)C3=CC=CC=C3C)CN4C=NC5=C(N=CN=C54)N
Outline: as §1

[4] = compound: Cc1sc2c(c1C)C(c1ccc(Cl)cc1)=N[C@@H](CC(=O)OC(C)(C)C)c1nnc(C)n1-2
Outline: as §1

[5] = compound: c1ccc([C@@H]2C[C@H]2NC2CCNCC2)cc1
Outline: as §1

Measured: log2 fold change

MYO1C (UniProt O00159)
inactive: [1] -0.129 | [2] 0.072 | [3] 0.109 | [4] 0.036 | [5] -0.103

MTHFD1 (UniProt P11586)
inactive: [1] -0.059 | [2] 0.024 | [3] 0.018 | [4] -0.013 | [5] -0.019

MTFP1 (UniProt Q9UDX5)
inactive: [1] 0.041 | [2] 0.061 | [3] 0.013 | [4] -0.01 | [5] 0

MYLK (UniProt Q15746)
inactive: [1] -0.08 | [2] -0.053 | [3] 0.096 | [4] 0.118 | [5] -0.21

MRPS6 (UniProt P82932)
inactive: [1] -0.084 | [2] 0.012 | [3] 0.052 | [4] 0.052 | [5] -0.022

MRTO4 (UniProt Q9UKD2)
inactive: [1] 0.023 | [2] -0.246 | [3] -0.048 | [4] 0.018 | [5] 0.009

MTRR isoform 1 (UniProt Q9UBK8)
inactive: [1] -0.04 | [2] 0.064 | [3] 0.112 | [4] 0.038 | [5] -0.032

MYL6 (UniProt G3V1V0)
inactive: [1] -0.119 | [2] 0.079 | [3] -0.003 | [4] -0.058 | [5] 0.135

MRTFA (UniProt Q969V6)
inactive: [1] -0.044 | [2] 0.107 | [3] -0.225 | [4] -0.1 | [5] -0.013

MTERF4 (UniProt Q7Z6M4)
inactive: [2] 0.014 | [4] 0.061 | [5] 0.04

MT1L (UniProt Q93083)
inactive: [4] -0.061

MSANTD2 (UniProt Q6P1R3)
inactive: [3] 0.06 | [4] 0.028

MTHFD2L (UniProt Q9H903)
inactive: [2] -0.198 | [3] 0.053 | [5] -0.058

MSL1 (UniProt Q68DK7)
inactive: [1] 0.083 | [3] 0.17

MTCH2 (UniProt E9PIE4)
inactive: [1] -0.071 | [3] 0.013

Pulled one by one from above, 2 records:
MT1L (UniProt Q93083)
inactive: [4] -0.061

MSL1 (UniProt Q68DK7)
inactive: [1] 0.083 | [3] 0.17
